# This list was built around the results that the source calls inconclusive (neither active nor inactive); the mix of calls is not that of the screen. Where the call is inconclusive, the potency comes from a doubtful curve fit. Activity calls are given as the source filed them. Calls follow the shape of the dose curve; as a rule, active = well fitted cell-killing curve with a large enough effect; inconclusive = small, poorly fitted or top-dose-only effect; inactive = flat fitted curve, though single readings scatter. Numbered stars: 1 amine (or outer) side, 2 acyl side, 3 side chain; on linkers, the order of the positions; unused ones are H or OH. Starred links: 1 amine or outer side, 2 acyl side, 3 side chain; linkers in the order of their positions; H or OH if unused. Positions of bridges follow the written chain, without caps; N, C: chain ends. Non-standard residues stand in square brackets, D forms with d. Square brackets hold non-standard residues; d marks the D form. Residues, ends and D or L forms follow the SMILES beside them. Peptide text beside a SMILES is read from it. * marks the point of attachment. ξ: configuration not given here. X3 = CCCCCCCCCC(=O)[C@H](C(=O)[*:2])[C@@H]1CNC(=O)[C@@H](N[*:1])CS1; Phe(3R-OH) = O=C([C@@H](N[*:1])[C@H](O[*:3])c1ccccc1)[*:2]; NMeTrp(4-OMe) = CN[C@@H](Cc1c[nH]c2cccc(OC)c12)C(=O)O; X4 = O=C(C1CC2(c3ccc(O)cc3)c3ccccc3NC2N1[*:1])[*:2]; ξThr(3R)(O-yl) = C[C@@H](O[*:3])C(N[*:1])C(=O)[*:2]; NMeThr(3ξ) = CN[C@H](C(=O)O)C(C)O; ξW = NC(Cc1c[nH]c2ccccc12)C(=O)O; NMeL = CN[C@@H](CC(C)C)C(=O)O; NMeV = CN[C@H](C(=O)O)C(C)C; ξIle = CC[C@H](C)C(N)C(=O)O; ξY = NC(Cc1ccc(O)cc1)C(=O)O; Hexanoyl = CCCCCC(=O)*; ξV = CC(C)C(N)C(=O)O
# Experiment: G06 Cancer Cell Toxicity qHTS against the NCATS CANVASS Library (AID 1347368); also: nearly all actives have a fitted effect of over 60% in size
# Settings: G06 dog glioma cells, viability ATP luminescence, 72 h; series mostly up to 46.1 µM; activity change, negative = cytotoxic: at the top concentration
# Description: Natural products and their derivatives continue to be wellsprings of nascent therapeutic potential. However, many laboratories have limited resources for biological evaluation, leaving their previously isolated or synthesized compounds largely or completely untested. To address this issue, the Canvass library of natural products was assembled (https://tripod.nih.gov/canvass), in collaboration with academic and industry researchers, for quantitative high-throughput screening (qHTS) across a diverse set of cell-based and biochemical assays. The pure (>85% purity by liquid chromatography/mass spectrometry [LC/MS]) Canvass library of 346 natural products were submitted by 45 academic laboratories and companies around the world. We collected pure natural products to circumvent deconvolution and structure elucidation due to time and resource limitations. The library was formatted into 1536-well plates and evaluated in 50 qHTS (in an 11-pnt concentration series) bioassays with broad scope of disease-relevant mechanisms. The resulting data set from 50 different assays was then systematically analyzed to identify overall trends and specific natural products with interesting biological activities. Reported herein are the results of each individual qHTS and their corresponding assay protocol. This assay uses ATP (luminescence) content to measure the cytotoxiciy of compounds on G06 dog glioma cancer cell line. National Center for Advancing Translational Sciences (NCATS), Rockville, MD National Institute of Health (NIH), Bethesda, Maryland
# Cancer Cell Toxicity qHTS protocol: for cell lines G06, J3T, and SDT. 1. In a 1536 well, tissue culture treated white solid bottom plates (Corning 7494), 5 uL of G06 cell solution (final concentration of 500 cells / well) was dispensed using the Multidrop Combi dispenser (Thermo Fisher Scientific) into columns 2, 3, 5-48. 2. Control and compounds were pin transferred (~23 nL volume) to the assay plates via Wako Pin-tool (Wako Automation, Richmond VA) equipped with a 1536 pin head. The compounds were transferred to columns 5-48 resulting in a final concentration ranging from 0.17 nM to 103 uM. Dose response titration of Bortezomib was pin transferred into column (1mM; 1:2 dilution; 16 points) resulting to a final concentration range of 0.1 nM - 4.6 uM. 3. The assay plates were further incubated in the at 37C, 5% CO2, 95% Rh for 72 hr. 4. After incubation, 3 uL of CellTiterGlo reagent (Promega) was added to the assay plates (column 1-48, rows 1-32) and centrifuged for 15 sec at 1000 rpm to remove bubbles. 5. Luminescence signal was acquired via the ViewLux plate reader (PerkinElmer) using a clear emission filter, 2 sec exposure, and 1x binning settings.
# % is scaled to controls: 0 for no effect and ±100 for the full control effect; potency is read from the fitted curve at half-maximal effect.
SMILES,Potency,outcome,"activity change, negative = cytotoxic"
O=C1CC(c2ccc(O)cc2)Oc2ccccc21 (stereo not given),"inconclusive: 6.62 µM [cytotoxic, full curve]",,
CC12C[C@]3(O)O[C@@H](O1)[C@]1(COC(=O)c4ccccc4)[C@@H]3CC21OC1OC(CO)C(O)C(O)C1O (stereo not given in full),"inconclusive: 37.2 µM [cytotoxic, single point]",,
C=C[C@@]1(C)CC[C@@H]([C@H](C)C(=O)/C=C/C(C)(C)O)O1,"inconclusive: 29.6 µM [cytotoxic, single point]",,
O=c1cc(-c2ccc(O)c(O)c2)oc2cc(O[C@@H]3O[C@H](CO)[C@@H](O)[C@H](O)[C@H]3O)cc(O)c12,"inconclusive: 4.18 µM [cytotoxic, full curve]",,
CCC[C@@H](C)/C=C(\C)[C@H](O)[C@H](C)/C=C/CC[C@@H](O)[C@H](C)[C@H](O)[C@H](C)[C@H](O)[C@H](C)[C@H]1O[C@H]([C@H](C)C(=O)O)CC[C@@H]1C,"inconclusive: 11.8 µM [cytotoxic, partial curve]",,
COc1ccc([C@@H]2c3cc(OC)c(OC)cc3C(=O)C(C)C2C)cc1OC (stereo not given in full),,inactive,
C=C1C[C@@]23C=CC(=O)[C@@](C)(CCC(=O)Nc4c(O)ccc(C(=O)O)c4O)C2C[C@@H]1CC3O (stereo not given in full),,,inactive: -2.75%
CCCCCC(=O)N[C@@H](CC(C)C)C(=O)N[C@H](C=O)CCC(=O)O (Hexanoyl-Leu-Glu-aldehyde),,,inactive: -0.899%
CN1CC[C@@]23c4ccccc4N[C@@H]1[C@@]21CCN(C)[C@@H]3Nc2ccccc21,"inconclusive: 16.6 µM [cytotoxic, partial curve]",,
CC[C@H](O)CCCCC[C@@H]1NC(=O)[C@H]2CCCCN2C(=O)[C@H]([C@H](C)CC)NC(=O)[C@H](Cc2cn(OC)c3ccccc23)NC1=O,"inconclusive: 23.5 µM [cytotoxic, single point]",,
O=c1cc(-c2ccc(O)c(O[C@@H]3O[C@H](CO)[C@@H](O)[C@H](O)[C@H]3O)c2)oc2cc(O[C@@H]3O[C@H](CO)[C@@H](O)[C@H](O)[C@H]3O)cc(O)c12,"inconclusive: 14.8 µM [cytotoxic, partial curve]",,
COc1cc2oc3ccccc3c(=O)c2cc1OC,"inconclusive: 42.9 µM [cytotoxic, partial curve]",,
CCC(=O)N[C@@H](C[C@H](C)C(Cl)(Cl)Cl)C(=O)N1C(=O)C=C(OC)[C@@H]1CC(C)C,"inconclusive: 11.8 µM [cytotoxic, partial curve]",,
CC[C@H]1[C@@H](C)[C@@H](c2cc(OC)c(OC)cc2OC)[C@H](C)[C@@H](c2cc(OC)c(OC)cc2OC)[C@@]12C=C(OC)C(=O)C=C2OC,"inconclusive: 20.9 µM [cytotoxic, partial curve]",,
COc1cc(C2OCC3C(c4ccc(O)c(OC)c4)OCC23)ccc1O (stereo not given),,inactive [at 9.19 µM],
C[C@@H]1O[C@@H](O[C@@H]2[C@@H](O)[C@H](O[C@@H]3[C@@H](O)[C@@H](O)C(O[C@H]4[C@H](OC(=O)[C@]56CCC(C)(C)C[C@H]5C5=CCC7[C@@]8(C)C[C@H](O)[C@H](O[C@@H]9C[C@H](CO)[C@@H](O)[C@H](O)[C@H]9O)[C@@](C)(CO)C8[C@H](O)C[C@@]7(C)[C@]5(C)CC6)OC[C@H](O)[C@@H]4O)O[C@H]3C)OC[C@H]2O)[C@H](O)[C@H](O)[C@H]1O (stereo not given in full),"inconclusive: 16.2 µM [cytotoxic, partial curve, poor fit]",,
C/C=C/C1C=CC2CC(C)CC(C)C2C1C(=O)CC(=O)NC(CO)C/C=C/CCCCC (stereo not given),active: 1.32 µM,,
C[C@@]12CCC[C@@](C)(C(=O)O)[C@H]1CC[C@]13C[C@H]4C[C@H](O[C@@]4(C)C1)[C@H]32,,,inactive: 4.71%
C=CC(CCCCC)C1C(=O)NC(=O)C1C(=O)C1C(/C=C/C)C=CC2CC(C(=O)O)CC(C)C21 (stereo not given),,,inactive: -12.2%
COC(=O)c1cccc2oc(-c3cccc4oc(-c5c(C)cccc5O)nc34)nc12,"inconclusive: 13.2 µM [cytotoxic, partial curve]",,

# A second format for 3 compounds above:
SMILES	Potency	outcome	activity change, negative = cytotoxic
CCC(=O)N[C@@H](C[C@H](C)C(Cl)(Cl)Cl)C(=O)N1C(=O)C=C(OC)[C@@H]1CC(C)C	inconclusive: 11.8 µM [cytotoxic, partial curve]		
CC[C@H]1[C@@H](C)[C@@H](c2cc(OC)c(OC)cc2OC)[C@H](C)[C@@H](c2cc(OC)c(OC)cc2OC)[C@@]12C=C(OC)C(=O)C=C2OC	inconclusive: 20.9 µM [cytotoxic, partial curve]		
COc1cc(C2OCC3C(c4ccc(O)c(OC)c4)OCC23)ccc1O (stereo not given)		inactive [at 9.19 µM]	

# Following part.

SMILES,Potency,outcome,"activity change, negative = cytotoxic"
C=C1CC[C@@H](O[C@H]2C[C@@](O)([C@H](C)NC(=O)c3[nH]c(C)c(Cl)c3Cl)[C@H](O)[C@@H](C)O2)[C@@H]2C=C[C@H](C)C(/C(O)=C3/C(=O)[C@H](C(C)C)N([C@@H]4O[C@H](C)[C@H](OC(N)=O)[C@H](OC(C)=O)[C@@H]4OC)C3=O)[C@@H]12 (stereo not given in full),"inconclusive: 33.2 µM [cytotoxic, single point]",,
CC[C@H](C)[C@H](NC(=O)C(Cc1ccc(O)cc1)NC(=O)C(Cc1c[nH]c2ccccc12)NC(=O)[C@H](C)N)C(=O)N1C(C(=O)NC(Cc2ccc(O)cc2)C(=O)O)CC2(c3ccc(O)cc3)c3ccccc3NC12 (stereo not given in full) (H-A[ξW][ξY]I[X4][ξY]-OH),,,inactive: 1.48%
O=C1CC(c2cc(O)cc(O)c2)Oc2cc(O)ccc21 (stereo not given),"inconclusive: 11.8 µM [cytotoxic, partial curve]",,
CC1=C[C@H]2[C@H]3C(=O)C(c4ccc(O)cc4)=C[C@@]3(c3ccc(O)cc3)[C@@H]1C(=O)[C@]2(C)O,active: 0.235 µM,,
CC1=C(C)C(=O)OC(C(C)C2(O)CCC3C4C5OC5C5(O)CC=CC(=O)C5(C)C4CCC32C)C1 (stereo not given),active: 23.5 µM,,
C=C1[C@H]2CC[C@@]3(C=CC(=O)[C@@](C)(CCC(=O)Nc4c(O)ccc(C(=O)O)c4O)C3C2)[C@H]1O (stereo not given in full),,,inactive: -13.9%
COc1ccc([C@@H]2c3cc4c(cc3C[C@H](C)C2C)OCO4)cc1OC (stereo not given in full),"inconclusive: 37.2 µM [cytotoxic, single point]",,
CC(=O)O[C@@H]1C=C2C(=O)OC[C@]2(O)[C@@]2(C)CCCC(C)(C)[C@H]12,active: 10.5 µM,,
C=C[C@]1(C)CC[C@@H]([C@H](C)C(=O)/C=C/C(C)(C)O)O1,"inconclusive: 33.2 µM [cytotoxic, single point]",,
C/C(=C\CC[C@@H](C)[C@H]1CC[C@]2(C)C3=CCC4C(C)(C)[C@@H](O)C[C@@H](O)[C@]4(C)C3[C@H](O)C[C@@]12C)CO (stereo not given in full),,inactive,
C[C@]12CC[C@]3(C1)[C@H](CC2=O)C[C@@H](OC(=O)c1ccccc1)[C@H]1[C@](C)(C(=O)O)CCC[C@@]13C,"inconclusive: 37.2 µM [cytotoxic, single point]",,
C=C(C)CC[C@H](Cc1c(O)cc(O)c2c1O[C@H](c1ccc(O)cc1)CC2=O)C(=C)C,,,inactive: -29.2%
Cc1occ2c1C(=O)c1c(cc(O)c(O)c1O)C2=O,"inconclusive: 2.64 µM [cytotoxic, full curve]",,
COc1ccc2cc(NC(=O)C3=NO[C@H]4[C@H](O)C=C[C@@H](Cl)[C@@]4(O)C3)c(=O)oc2c1OC,active: 11.8 µM,,
CCCCCCCCCC(=O)[C@@H]1C(=O)N[C@@H](CC(C)C)C(=O)N[C@H](C)C(=O)N2CCC[C@H]2C(=O)N[C@@H](C(C)C)C(=O)N[C@H]2CS[C@H]1CNC2=O (cyclo(L[dA]PV[X3])),"inconclusive: 2.96 µM [cytotoxic, full curve]",,
C=C1C[C@H]2O[C@@H]3[C@@H]4[C@H](CC[C@@](C)(O)[C@@H]42)[C@H](C)COC3(C)[C@@H](OC(=O)CCCCCCC)C[C@H]1O (stereo not given in full),"inconclusive: 20.9 µM [cytotoxic, partial curve]",,
CC(CCC[C@]1(C)C(=O)C=C[C@@]23C[C@]4(C)O[C@@H](C[C@@H]4[C@H]2O)C31)C(=O)O (stereo not given in full),,,inactive: 4.03%
COc1cc2c(cc1OC)[C@@H](c1ccc3c(c1)OCO3)C(C)[C@@H](C)C2=O (stereo not given in full),"inconclusive: 29.6 µM [cytotoxic, single point]",,
CC1=CC2=C[C@H](C)C[C@@]23OC(=C(C)C3=O)CC(C)(C)/C=C/C1=O,active: 0.833 µM,,
CC[C@H](C)C(NC(=O)[C@@H](NC)C(C)C)C(=O)NC1C(=O)N(C)[C@@H](C(C)O)C(=O)N[C@@H](C(C)C)C(=O)N(C)[C@@H](CC(C)C)C(=O)NC(C(C)C)C(=O)N(C)[C@@H](C(C)C)C(=O)N(C)[C@@H](Cc2c[nH]c3cccc(OC)c23)C(=O)N[C@@H](C(C)C)C(=O)N[C@@H]([C@H](O)c2ccccc2)C(=O)N[C@@H](C(C)C)C(=O)O[C@@H]1C (stereo partly drawn) (H-[NMeV][ξIle][ξThr(3R)(O-yl)][NMeThr(3ξ)]V[NMeL][ξV][NMeV][NMeTrp(4-OMe)]V[Phe(3R-OH)]V; ester 3-C),"inconclusive: 37.2 µM [cytotoxic, single point]",,

# Reference: PubChem BioAssay (NCATS)
